From article PMC8990465 come the findings set out here.

The target in experiment [1] is T1, CLDN10 (Claudin-10) overexpressed with 3xflag (UniProt P78369).
T1 sequence: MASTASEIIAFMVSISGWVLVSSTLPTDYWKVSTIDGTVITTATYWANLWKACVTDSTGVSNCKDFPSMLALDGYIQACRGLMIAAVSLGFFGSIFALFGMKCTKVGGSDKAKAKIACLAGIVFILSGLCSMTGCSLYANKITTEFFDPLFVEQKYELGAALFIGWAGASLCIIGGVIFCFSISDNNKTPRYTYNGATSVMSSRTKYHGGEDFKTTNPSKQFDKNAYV
Briefly: co-IP; anti-Flag M2 magnetic beads in cell lysate of CLDN10 overexpression and control groups, overnight at 4 °C, washed 3 times with lysis buffer; western blot.

In experiment [2] the target is T2, ATP5O overexpressed with 3xflag (UniProt P48047).
T2 sequence: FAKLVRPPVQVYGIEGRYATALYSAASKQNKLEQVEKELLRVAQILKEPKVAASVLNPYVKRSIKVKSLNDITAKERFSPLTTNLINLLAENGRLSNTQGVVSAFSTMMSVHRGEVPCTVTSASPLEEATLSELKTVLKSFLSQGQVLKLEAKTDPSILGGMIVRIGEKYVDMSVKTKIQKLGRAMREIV
As to the kind of experiment: co-IP; Flag IP from mitochondrial protein of the ATP5O (3xflag) stably transfected Caki-1 cell line; western blot. On the technique in general: A western blot detects proteins with antibodies after separation by electrophoresis.

No constants are given. Whether binding was seen depends on the method and setting. Binding seen in cells or lysates may run through a third protein. Some binding calls cover weakened binding; strength is not graded here. Tags and fused reporters may be left off the sequences shown.

B1: ATP5O protein (ATP synthase subunit O, mitochondrial) (protein, UniProt P48047 24-213)
chain: FAKLVRPPVQVYGIEGRYATALYSAASKQNKLEQVEKELLRVAQILKEPKVAASVLNPYVKRSIKVKSLNDITAKERFSPLTTNLINLLAENGRLSNTQGVVSAFSTMMSVHRGEVPCTVTSASPLEEATLSELKTVLKSFLSQGQVLKLEAKTDPSILGGMIVRIGEKYVDMSVKTKIQKLGRAMREIV
As to B1, the binding entry in experiment [1] was “binds”.

B2: CLDN10 protein in the mitochondria of ATP5O-3xflag Caki-1 cells (protein, UniProt P78369 1-228)
chain: MASTASEIIAFMVSISGWVLVSSTLPTDYWKVSTIDGTVITTATYWANLWKACVTDSTGVSNCKDFPSMLALDGYIQACRGLMIAAVSLGFFGSIFALFGMKCTKVGGSDKAKAKIACLAGIVFILSGLCSMTGCSLYANKITTEFFDPLFVEQKYELGAALFIGWAGASLCIIGGVIFCFSISDNNKTPRYTYNGATSVMSSRTKYHGGEDFKTTNPSKQFDKNAYV
Regarding B2, in experiment [2], the binding entry is recorded as “binds”.
